Values of other authors, collected in article PMC11912471, “Design, Synthesis, and Biological Activity of Novel Ornithine Decarboxylase (ODC) Inhibitors” (Journal of Medicinal Chemistry, 2025).

Settings: cited from earlier work

NCCC[C@H](N)C(=O)O [ornithine]
pKa of amino group (ornithine α-amino group, putrescine nitrogen): ~8.7 | pKa printed in Figure 1 (ornithine α-amino, putrescine): ~ 8.5
